Experimental data published in patent US12322837B2, “Electrochemical reduction of halogenated compounds comprising a haloalkane” (Massachusetts Institute of Technology, priority 2021, dated 2025).

Key:
[1] = Galvanostatic discharge of Swagelok-type Li cells with 0.1 M fluoro-aromatic reactant in LiClO4/DMSO; conditions: for discharge potential: 0.1 M reactant in DMSO electrolyte; for discharge voltage, single plateau: 0.1 M R-Ph-SF5/0.1 M LiClO4/DMSO, Ketjen Black
[2] = Galvanostatic discharge of Li-NO2-Ph-SF5 cells at high catholyte concentration
[3] = Rechargeability of Li-NO2-Ph-SF5 cells (galvanostatic cycling); conditions: for reversible capacity (up to): EC/DMC
[4] = Na—NO2-Ph-SF5 cell discharge and cycling; conditions: for discharge voltage: 4 M
[5] = Ca-NO2-Ph-SF5 cell discharge; conditions: 0.04 mA/cm^2, 50° C.
[6] = Shelf-life tests for Li-NO2-Ph-SF5 cells

Compound: N#Cc1ccc(C=CC(F)(F)C(F)(F)C(F)(F)C(F)(F)C(F)(F)C(F)(F)C(F)(F)C(F)(F)F)cc1 [Ph-CN-C8 (p)]
- gravimetric attainable capacity ([1]; 0.1 M, 50° C.): 748 mAh/greactant
- specific energy (normalized to weight of active materials, Li+liquid reactant) ([1]; 0.1 M, 50° C.): 1785 Wh/kgreactant

Compound: FC(F)(F)C(F)(F)C(F)(F)C(F)(F)C(F)(F)C(F)(F)C=Cc1ccccc1 [Ph-H-C6]
- discharge potential ([1]; 50° C.): 2.1 V

Compound: FS(F)(F)(F)(F)c1ccccc1 [Ph-SF5]
- discharge voltage, single plateau ([1]; 40 μA·cm^−2, 50° C.): −2.5 V vs. Li/Li^+

Compound: FS(F)(F)(F)(F)c1ccc(I)cc1 [Ph-I—SF5]
- discharge voltage, single plateau ([1]; 40 μA·cm^−2, 50° C.): −2.5 V vs. Li/Li^+

Compound: FC(F)(F)C(F)(F)C(F)(F)C(F)(F)C(F)(F)C(F)(F)C=Cc1cccnc1 [Py-C6]
- increase of discharge potential on changing benzene to pyridine (from Ph-H-C6) ([1]; 0.1 M, 50° C.): −0.1 V

Compound: N#Cc1ccccc1C=CC(F)(F)C(F)(F)C(F)(F)C(F)(F)C(F)(F)C(F)(F)F [Ph-CN-C6 (o)]
- discharge potential ([1]; 50° C.): 2.5 V

Compound: O=[N+]([O-])c1ccccc1C=CC(F)(F)C(F)(F)C(F)(F)C(F)(F)C(F)(F)C(F)(F)F [Ph-NO2—C6 (o)]
- discharge potential ([1]; 50° C.): 2.6 V
- gravimetric attainable capacity ([1]; 0.1 M, 50° C.): 642 mAh/greactant
- specific energy (normalized to weight of active materials, Li+liquid reactant) ([1]; 0.1 M, 50° C.): 1600 Wh/kgreactant

Compound: O=[N+]([O-])c1ccccc1C=CC(F)(F)C(F)(F)C(F)(F)C(F)(F)C(F)(F)C(F)(F)C(F)(F)C(F)(F)F [Ph-NO2—C8 (o)]
- gravimetric attainable capacity ([1]; 0.1 M, 50° C.): 681 mAh/greactant
- specific energy (normalized to weight of active materials, Li+liquid reactant) ([1]; 0.1 M, 50° C.): 1700 Wh/kgreactant

Compound: O=[N+]([O-])c1ccc(S(F)(F)(F)(F)F)cc1 [NO2-Ph-SF5, 4-Nitrophenylsulfur pentafluoride]
- attainable capacity ([2]; 1.0 M, 40 μA/cm^2, 50° C.): 818 mAh·g—NO2-Ph-SF5^−1
- attainable capacity ([2]; 2.0 M, 40 μA/cm^2, 50° C.): 786 mAh·g—NO2-Ph-SF5^−1
- sub-stack capacity ([2]; 3 M, 0.1 mA·cm^−2): 292 mAh·gsub-stack^−1
- sub-stack capacity ([2]; 4 M, 0.1 mA·cm^−2): 362 mAh·gsub-stack^−1
- sub-stack capacity (rate capability) ([2]; 4.0 M, 50° C., 0.3-1.0 mA·cm^−2 (0.01 C-0.04 C)): ~362 mAh·gsub-stack^−1
- sub-stack gravimetric energy at low power ([2]; 4 M, at ˜15 W·kgsub-stack^−1): ~1000 Wh·kgsub-stack^−1
- maximum gravimetric energy ([2]; 4.5 M, 0.1 mA·cm^−2): 1085 Wh·kgsub-stack^−1
- attained capacity ([2]; 5.0 M, 40 μA/cm^2, 50° C.): 544 mAh·gNO2-Ph-SF5^−1
- areal capacity ([2]; increasing between 1.0 and 5.0 M, 40 μA/cm^2, 50° C.): 5.8-19.1 mAh-cm^−2
- capacity in second discharge ([3]; 0.1 M, DMSO, 1.9-3.9 V vs. Li/Li^+, 0.04 mA/cm^2, 50° C.): 0.26 mAh/cm^2
- capacity in second discharge ([3]; 0.1 M, DMSO, 50° C.): 2.2 e^−/molecule
- capacity in third discharge ([3]; 0.1 M, DMSO, 50° C.): −1.3 e/molecule
- reversible capacity (up to) ([3]; 0.1 M, 1.5-4.6 V vs. Li/Li^+, 50° C.): up to 0.47 mAh/cm^2
- reversible capacity (up to) ([3]; 0.1 M, 50° C.): ≤ 3.9 e/molecule
- partially reversible capacity, lower voltage region ([3]; second and third discharge): 2-3 e/molecule
- capacity of second discharge ([4]; 0.1 M, EC/DMC, 0.02 mA/cm^2, RT): 380 mAh/gNO2-Ph-SF5
- capacity of initial discharge ([4]; 0.1 M, EC/DMC, 0.3 mA/cm^2, RT): 441 mAh/gNO2-Ph-SF5
- capacity of third discharge ([4]; 0.1 M, EC/DMC, RT): > 200 mAh/g/gPh-NO2-SF5
- reversible capacity ([4]; 0.1 M, EC/DMC, RT): ~200 mAh/gPh-NO2-SF5
- total capacity of the two discharges ([4]; 0.1 M, EC/DMC, RT): 821 mAh/gPh-NO2-SF5
- discharge capacity ([4]; 4 M NO2-Ph-SF5/0.2 M NaTFSI in DMSO, carbon foam, 0.3 mA/cm^2, 50° C.): 2.3 mAh/cm^2
- discharge voltage ([4]; DMSO, 0.3 mA/cm^2, 50° C.): −2.2 V vs. Na/Na^+
- discharge voltage ([4]; EC/PC, 0.3 mA/cm^2, 50° C.): 2.0 V vs. Na/Na^+
- total capacity ([5]; 4 M NO2-Ph-SF5/0.2 M CaTFSI/DMSO): 6.5 mAh/cm^2
- initial discharge voltage ([5]; 4 M): 0.8 V vs. Ca/Ca^2+
- average voltage ([1]; 0.1 M, 50° C.): 2.6 V
- gravimetric attainable capacity ([1]; 0.1 M, 50° C.): 840 mAh/greactant
- specific energy (normalized to weight of active materials, Li+liquid reactant) ([1]; 0.1 M, 50° C.): 2190 Wh/kgreactant
- capacity of first region ([1]; 40 μA/cm^2, 50° C.): ~5 e^− per molecule
- capacity of second region ([1]; 40 μA/cm^2, 50° C.): ~3 e^− per molecule
- share of first region in total capacity ([1]; 40 μA/cm^2, 50° C.): > 60%
- total electron transfer (calculated based on capacity) ([1]; 40 μA/cm^2, 50° C.): 8 e^−
- voltage of first flat plateau ([1]; 40 μA/cm^2, 50° C.): 2.9 V
- gas evolution during discharge (pressure transducer) ([1]; 150 μL 0.1 M NO2-Ph-SF5/0.1 M LiClO4/DMSO, KB, 40 μA·cm^−2, 50° C.): negligible gas evolution
- capacity loss upon discharge after rest ([6]; as-assembled cells rested 30 days at 50° C., 4 M): no capacity loss
- voltage fade upon interruption at partial depth-of-discharge ([6]; resting for 10-30 days): negligible voltage fade
